Data from publication PMC4639896.
The exact form of at least one protein or probe is not confirmed. At least one verdict rests on a figure or table, not on a statement of the authors. Protein sequences can lack the tags named with them.

Molecular target: T1, ABI5 (UniProt Q9SJN0)
T1 sequence (looked up, limits assumed): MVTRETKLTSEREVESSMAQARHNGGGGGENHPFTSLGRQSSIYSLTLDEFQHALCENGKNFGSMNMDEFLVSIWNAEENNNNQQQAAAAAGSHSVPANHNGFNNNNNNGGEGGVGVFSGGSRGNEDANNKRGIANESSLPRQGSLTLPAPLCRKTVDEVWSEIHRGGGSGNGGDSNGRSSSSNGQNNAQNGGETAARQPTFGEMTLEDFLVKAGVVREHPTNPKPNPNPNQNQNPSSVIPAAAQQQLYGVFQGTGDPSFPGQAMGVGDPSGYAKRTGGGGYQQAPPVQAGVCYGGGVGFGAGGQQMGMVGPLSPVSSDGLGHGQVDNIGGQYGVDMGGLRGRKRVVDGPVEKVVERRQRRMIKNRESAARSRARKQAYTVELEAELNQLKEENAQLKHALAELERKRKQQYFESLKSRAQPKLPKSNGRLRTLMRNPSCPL
Assay: EMSA
Details: 10 mM Tris pH 8, 1 mM EDTA, 100 mM NaCl, 2 mM DTT (reducing), 10% glycerol, 0.5 ug poly(dI-dC), BSA, 10 ng probe, 1.5 ug protein, 30 min on ice, 6% PAGE 0.5x TBE, recombinant protein, protein details: N-terminal 6xHis (pET-28a+), label: biotin

Measured: binding result

GATCCTCTCGCGTACAATAAAGTCAGACACGTGGCATGTCACCAACGTAGCGTATGCGTA (double strand) [ABRE probe]
binds: non-reducing, 1 mM GSNO (S-nitrosylation) | non-reducing, no GSNO | reducing conditions (DTT)
